Article PMC9829178
Results are given in words; binding and its absence hold for the method and conditions named. For part of these data: In cells and extracts the contact can be indirect. Some entries that bind do so weakly or less than the wild type. For part of these data: Sequences can lack the tags named with a protein. One block for each binder: values may come before it.

Experiments:
[1] = target: T1, FBXL21 (yeast two-hybrid fusion) (UniProt Q8BFZ4); test: two-hybrid; yeast two-hybrid (Gal4 system) screen and test; which protein was bait is not stated
T1 sequence: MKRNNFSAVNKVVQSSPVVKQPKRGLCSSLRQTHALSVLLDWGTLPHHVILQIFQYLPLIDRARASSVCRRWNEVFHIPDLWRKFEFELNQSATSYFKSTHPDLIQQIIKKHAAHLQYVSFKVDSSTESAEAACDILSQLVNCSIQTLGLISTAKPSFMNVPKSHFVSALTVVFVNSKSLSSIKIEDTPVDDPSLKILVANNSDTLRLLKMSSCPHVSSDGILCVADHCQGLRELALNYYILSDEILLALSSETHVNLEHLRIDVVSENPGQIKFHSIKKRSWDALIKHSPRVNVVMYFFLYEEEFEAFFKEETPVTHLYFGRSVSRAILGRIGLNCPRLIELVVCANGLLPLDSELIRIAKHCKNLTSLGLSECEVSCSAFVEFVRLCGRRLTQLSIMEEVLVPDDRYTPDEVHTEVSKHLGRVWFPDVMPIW

Flag-FBXL21 = target: T2, Flag-FBXL21 (UniProt Q8BFZ4); test: co-IP; HEK 293T cells co-transfected with Flag- and HA-tagged constructs; immunoprecipitation with anti-FLAG (M2) agarose beads; immunoblot with Flag-HRP and HA antibodies
T2 sequence: T1 sequence

[2] = target: T3, FBXL21 (endogenous, mouse gastrocnemius) (mouse (endogenous in gastrocnemius of C57BL/6J mice)) (UniProt Q8BFZ4); test: co-IP; gastrocnemius tissue of WT C57BL/6J mice collected at ZT0 and ZT12; immunoprecipitation with FBXL21 antibody; endogenous proteins
T3 sequence: T1 sequence

binding [1]: binds
B1: Myozenin1 (MYOZ1) (yeast two-hybrid fusion) (protein, UniProt Q9JK37 1-296)
chain: MPLSGTPAPNKRRKSSKLIMELTGGGRESSGLNLGKKISVPRDVMLEELSLLTNRGSKMFKLRQMRVEKFIYENHPDVFSDSSMDHFQKFLPTVGGQLETAGQGFSYGKGSSGGQAGSSGSAGQYGSDRHQQGSGFGAGGSGGPGGQAGGGGAPGTVGLGEPGSGDQAGGDGKHVTVFKTYISPWDRAMGVDPQQKVELGIDLLAYGAKAELPKYKSFNRTAMPYGGYEKASKRMTFQMPKFDLGPLLSEPLVLYNQNLSNRPSFNRTPIPWLSSGEHVDYNVDVGIPLDGETEEL

binding (Flag-FBXL21): binds
B2: HA-MYOZ1 (protein, UniProt Q9JK37 1-296)
chain: B1 chain

binding [2]: binds
B3: MYOZ1 (endogenous, mouse gastrocnemius) (protein, UniProt Q9JK37 1-296)
chain: B1 chain
